# Measurements from the supplement of paper PMC8728848.
# The other results are listed elsewhere or left out.
# B1: Actd5 (Actinidia), P84527 (protein)
# chain: ISSCNGPCRDLNDCDGQLICIKGKCNDDPQVGTHICRGTTHSHQPGGCKPSGTLTCRGKSYPTYDCSPPVTSSTPAKLTNNDFSEGGDDGGPSECDESYHNNNERIVALSTGWYNGGSRCGKMIRITASNGKSVSAKVVDECDSRHGCDKEHAGQPPCRNNIVDGSNAVWSALGLDKNVGVVDITWSMA
# Assays:
# Assay in all cases: glycan array binding signal (z-score within array); higher = stronger binding
# Conditions in all cases: glycan notation: IUPAC condensed, linker removed
# [1] = biological target: Neu5Ac(a2-3)Gal(b1-4)GlcNAc(b1-3)[Neu5Ac(a2-3)Gal(b1-4)GlcNAc(b1-6)]GalNAc
# Summary of the method: (§1)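 Glycan array data came from 3228 arrays in the Consortium for Functional Glycomics database, and only arrays with an available protein sequence were kept. Glycan names were put into IUPAC-condensed notation, and columns mapping to the same glycan were averaged. The binding signal is a within-array Z-score, averaged across arrays of one protein sequence run at different concentrations or buffers and across linkers. A negative Z-score can be read as non-binding.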
# [2] = biological target: Neu5Ac(a2-3)Gal(b1-4)GlcNAc(b1-6)GalNAc
# Summary of the method: as §1
# [3] = biological target: Neu5Ac(a2-3)Gal(b1-4)GlcNAc(b1-6)[Gal(b1-3)]GalNAc
# Summary of the method: as §1
# [4] = biological target: Neu5Ac(a2-3)Gal(b1-4)GlcNAc(b1-6)[Neu5Ac(a2-3)Gal(b1-3)]GalNAc
# Summary of the method: as §1
# [5] = biological target: Neu5Ac(a2-3)Gal(b1-4)GlcNAc6S
# Summary of the method: as §1
# [6] = biological target: Neu5Ac(a2-3)Gal(b1-4)[Fuc(a1-3)]GlcNAc
# Summary of the method: as §1
# [7] = biological target: Neu5Ac(a2-3)Gal(b1-4)[Fuc(a1-3)]GlcNAc(b1-2)Man
# Summary of the method: as §1
# [8] = biological target: Neu5Ac(a2-3)Gal(b1-4)[Fuc(a1-3)]GlcNAc(b1-3)Gal
# Summary of the method: as §1
# [9] = biological target: Neu5Ac(a2-3)Gal(b1-4)[Fuc(a1-3)]GlcNAc(b1-3)Gal(b1-4)GlcNAc
# Summary of the method: as §1
# [10] = biological target: Neu5Ac(a2-3)Gal(b1-4)[Fuc(a1-3)]GlcNAc(b1-3)Gal(b1-4)[Fuc(a1-3)]GlcNAc(b1-3)Gal(b1-4)[Fuc(a1-3)]GlcNAc
# Summary of the method: as §1
# [11] = biological target: Neu5Ac(a2-3)Gal(b1-4)[Fuc(a1-3)]GlcNAc(b1-3)GalNAc
# Summary of the method: as §1
# [12] = biological target: Neu5Ac(a2-3)Gal(b1-4)[Fuc(a1-3)]GlcNAc(b1-6)[Gal(b1-3)]GalNAc
# Summary of the method: as §1
# [13] = biological target: Neu5Ac(a2-3)Gal(b1-4)[Fuc(a1-3)]GlcNAc(b1-6)[Neu5Ac(a2-3)Gal(b1-3)]GalNAc
# Summary of the method: as §1
# [14] = biological target: Neu5Ac(a2-3)Gal(b1-4)[Fuc(a1-3)]GlcNAc6S
# Summary of the method: as §1
# [15] = biological target: Neu5Ac(a2-3)Gal6S(b1-4)GlcNAc
# Summary of the method: as §1
# [16] = biological target: Neu5Ac(a2-3)Gal6S(b1-4)[Fuc(a1-3)]GlcNAc
# Summary of the method: as §1
# Neu5Ac(a2-3)GalNAc = biological target: Neu5Ac(a2-3)GalNAc
# Summary of the method: as §1
# [17] = biological target: Neu5Ac(a2-3)GalNAc(b1-4)GlcNAc
# Summary of the method: as §1
# [18] = biological target: Neu5Ac(a2-3)[GalNAc(b1-4)]Gal(b1-4)Glc
# Summary of the method: as §1
# [19] = biological target: Neu5Ac(a2-3)[GalNAc(b1-4)]Gal(b1-4)GlcNAc
# Summary of the method: as §1
# [20] = biological target: Neu5Ac(a2-3)[GalNAc(b1-4)]Gal(b1-4)GlcNAc(b1-3)GalNAc
# Summary of the method: as §1
# [21] = biological target: Neu5Ac(a2-3)[Neu5Ac(a2-6)]GalNAc
# Summary of the method: as §1
# Neu5Ac(a2-6)Gal = biological target: Neu5Ac(a2-6)Gal
# Summary of the method: as §1
# [22] = biological target: Neu5Ac(a2-6)Gal(b1-3)GlcNAc(b1-3)[Gal(b1-4)GlcNAc(b1-6)]Gal(b1-4)Glc
# Summary of the method: as §1
# Neu5Ac(a2-6)Gal(b1-4)Glc = biological target: Neu5Ac(a2-6)Gal(b1-4)Glc
# Summary of the method: as §1
# [23] = biological target: Neu5Ac(a2-6)Gal(b1-4)GlcNAc
# Summary of the method: as §1
# [24] = biological target: Neu5Ac(a2-6)Gal(b1-4)GlcNAc(b1-2)Man
# Summary of the method: as §1
# [25] = biological target: Neu5Ac(a2-6)Gal(b1-4)GlcNAc(b1-2)Man(a1-3)Man(b1-4)GlcNAc(b1-4)GlcNAc
# Summary of the method: as §1
# [26] = biological target: Neu5Ac(a2-6)Gal(b1-4)GlcNAc(b1-2)Man(a1-3)[Gal(b1-4)GlcNAc(b1-2)Man(a1-6)]Man(b1-4)GlcNAc(b1-4)GlcNAc
# Summary of the method: as §1
# [27] = biological target: Neu5Ac(a2-6)Gal(b1-4)GlcNAc(b1-2)Man(a1-3)[GlcNAc(b1-2)Man(a1-6)]Man(b1-4)GlcNAc(b1-4)GlcNAc
# Summary of the method: as §1
# [28] = biological target: Neu5Ac(a2-6)Gal(b1-4)GlcNAc(b1-2)Man(a1-3)[GlcNAc(b1-4)][Neu5Ac(a2-6)Gal(b1-4)GlcNAc(b1-2)Man(a1-6)]Man(b1-4)GlcNAc(b1-4)GlcNAc
# Summary of the method: as §1
binder,measurement,setting,value
B1,glycan array binding signal (z-score),[1],-0.726
same,glycan array binding signal (z-score),[2],-0.87
same,glycan array binding signal (z-score),[3],0.092
same,glycan array binding signal (z-score),[4],-0.545
same,glycan array binding signal (z-score),[5],0.246
same,glycan array binding signal (z-score),[6],-0.42
same,glycan array binding signal (z-score),[7],-1.27
same,glycan array binding signal (z-score),[8],-0.144
same,glycan array binding signal (z-score),[9],0.65
same,glycan array binding signal (z-score),[10],-0.158
same,glycan array binding signal (z-score),[11],1.09
same,glycan array binding signal (z-score),[12],1.5
same,glycan array binding signal (z-score),[13],-0.33
same,glycan array binding signal (z-score),[14],-0.958
same,glycan array binding signal (z-score),[15],-0.992
same,glycan array binding signal (z-score),[16],-0.852
same,glycan array binding signal (z-score),Neu5Ac(a2-3)GalNAc,-0.832
same,glycan array binding signal (z-score),[17],-0.145
same,glycan array binding signal (z-score),[18],-0.705
same,glycan array binding signal (z-score),[19],-0.542
same,glycan array binding signal (z-score),[20],0.22
same,glycan array binding signal (z-score),[21],-0.329
same,glycan array binding signal (z-score),Neu5Ac(a2-6)Gal,-0.507
same,glycan array binding signal (z-score),[22],-0.211
same,glycan array binding signal (z-score),Neu5Ac(a2-6)Gal(b1-4)Glc,0.137
same,glycan array binding signal (z-score),[23],-0.691
same,glycan array binding signal (z-score),[24],0.227
same,glycan array binding signal (z-score),[25],-0.071
same,glycan array binding signal (z-score),[26],-0.093
same,glycan array binding signal (z-score),[27],-0.252
same,glycan array binding signal (z-score),[28],-1.55

# A portion of the results above, as a working copy:
binder,measurement,setting,value
B1,glycan array binding signal (z-score),[14],-0.958
same,glycan array binding signal (z-score),[15],-0.992
